According to patent publication EP0791071B1, “ASSAY FOR PROLINE IMINOPEPTIDASE AND OTHER HYDROLYTIC ACTIVITIES” (LITMUS CONCEPTS, INC., priority 1994, dated 1996):
Like-named read-outs stand apart in the source and are kept apart here. For some of these results: At least one structure is not confirmed: it was looked up by name or label, or the drawing left a doubt. Some entries share one result that the patent states for a list of compounds.

Columns and labels:
Assay type in all cases: biochemical
[1] = system: Mobiluncus curtisii ATCC strain 35241 hydrolysis of L-prolyl-beta-naphthylamide (proline iminopeptidase activity); assay: Enzyme inhibitors on hydrolysis of L-prolyl-beta-naphthylamide, PDMAC chromogen (Experiment VIII); conditions: concentration not given
Protocol: 150 µL cell suspension, 10 µL conjugate, (PRO.NAM), 10 µL inhibitor, and 30 µL buffer were added to test tubes, and the suspension incubated for 1.5 hours at room temperature. 80 µL of the suspension was removed from the incubation tubes and added to 80 µL of the chromogen solution in a second set of tubes and the color formation noted.

[2] = system: PRONASE (VENDOR 2); assay: Hydrolysis of conjugates by enzyme, Fast Garnet GBC indicator lamina (Experiment IV); set-up: key: -: no red color formation; +/-: possible red color formation; +: clearly visible red color formation; ++: extremely intense red color formation; conditions: pH 8.0
[3] = system: PRONASE (VENDOR 1); assay: as above; set-up: key: -: no red color formation; +/-: possible red color formation; +: clearly visible red color formation; ++: extremely intense red color formation; conditions: pH 8.0
[4] = system: Mobiluncus curtisii ATCC strain 35241 hydrolysis of the conjugate, L-prolyl-beta-naphthylamide; set-up: key: 0: no red color formation; 0.25: faintest red color detectable visually; 0.5: distinct red color; red color between 1.0 and 2.0 in intensity; 2.0: darkest red color possible in test system; conditions: conjugate PRO.NAM alone, no metal salt
Protocol: 20 µL cell suspension, 40 µL water, 10 µL salt solution, and 10 µL conjugate solutions (PRO.NAM or ARG.NAM) were added to test tubes, and mixed thoroughly. Immediately thereafter, 20 µL aliquots were removed from each tube, and added directly to Fast Garnet GBC chromogenic indicator laminae. After 5 minutes at room temperature, the Fast Garnet GBC sheets were examined for the formation of a red color.

SMILES | inhibition of the proline iminopeptidase activity of Mobiluncus curtisii ATCC strain 35241 cells [1] | PRONASE (VENDOR 2) FAST GARNET GBC (pH) COLOR SCORE [2] | PRONASE (VENDOR 1) FAST GARNET COLOR SCORE (pH) [3] | COLOR SCORE 5 MINUTES ([4]; pH 5) | COLOR SCORE 5 MINUTES ([4]; pH 8)
Cc1ccc(S(=O)(=O)N[C@@H](CCCCN)C(=O)CCl)cc1 [TLCK, N-tosyl-L-lysine-chloromethyl ketone] | did not inhibit |  |  |  | 
O=C(Nc1ccc2ccccc2c1)[C@@H]1CCCN1 [PRO.NAM, L-prolyl-beta-naphthylamide] |  | 2 (pH 8.0) | 1.5 (pH 8.0) | 1 | 0.5
COc1cc(NC(=O)[C@@H]2CCCN2C(=O)CN)cc2ccccc12 [GLY.PRO.MNA, L-glycyl-L-prolyl-4-methoxynaphthylamide] |  | 0 (pH 8.0) | 0 (pH 8.0) |  | 
